Out of some 220,000 compounds screened, about 770 (0.35%) were called active. The shares of active, inactive and inconclusive entries below differ from those in the screen. No stated cut-off is given here; in the data, active means binding response below about 49% or above about 150%; inconclusive means no clear call, values can overlap the other calls; inactive means in between.
molecular target: Guanine nucleotide-binding protein G(o) subunit alpha (Homo sapiens) (UniProt P09471); assay: RGS7-Galphao binding modulators, primary screen, biochemical, multiplexed bead flow cytometry (AID 1439); settings: at 10 µM, actives lie on both sides;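 further: fluorescent Galphao held in activated GDP-AlF4 state binding bead-coupled RGS7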

Sequences of proteins named here, by UniProt entry; tags and fusion partners are left off.
UniProt P09471, whole entry, looked up: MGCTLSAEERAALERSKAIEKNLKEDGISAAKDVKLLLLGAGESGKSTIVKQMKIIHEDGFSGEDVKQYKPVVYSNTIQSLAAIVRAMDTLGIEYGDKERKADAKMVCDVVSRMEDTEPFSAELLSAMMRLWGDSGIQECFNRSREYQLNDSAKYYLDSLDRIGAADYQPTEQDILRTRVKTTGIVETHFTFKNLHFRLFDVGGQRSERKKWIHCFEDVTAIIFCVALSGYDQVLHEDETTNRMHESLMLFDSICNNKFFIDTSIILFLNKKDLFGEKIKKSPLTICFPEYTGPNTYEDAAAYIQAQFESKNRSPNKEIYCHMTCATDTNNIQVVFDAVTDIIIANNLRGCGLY

Row | SMILES | binding response (% of control)
1 | O=C(CN1C(=O)c2ccccc2C1=O)Nc1ccc(S(=O)(=O)N2CCOCC2)cc1 | inactive: 99.6%
2 | CN(C)C(=O)C[n+]1cccc(/C=N/O)c1 | inactive: 110%
3 | COc1ccc(NC(=S)N(CCN(C)C)C(C)c2ccco2)cc1Cl (stereo not drawn) | inactive: 113%
4 | CCOc1ccc(/C=C2\NC(=S)NC2=O)cc1 | inconclusive: 75.5%
5 | O=C(CSc1nccn1-c1ccccc1)NO | inconclusive: 95.6%
6 | O=[N+]([O-])c1ccc(N/N=C/c2ccc[nH]2)cc1 | inactive: 102%
7 | CCCCCn1c(CN2CCN(C(=O)c3ccco3)CC2)nc2c1c(=O)n(C)c(=O)n2C | inconclusive: 141%
8 | COc1ccc(-c2[nH]ncc2CN2CCC(C(=O)c3ccc(F)cc3)CC2)cc1 | inconclusive: 134%
9 | O=C(CN1CCN(c2ccc(C(F)(F)F)cn2)CC1)NCc1ccc2c(c1)OCO2 | inconclusive: 148%
10 | Nc1c(C(=O)O)cnn1-c1ccc([N+](=O)[O-])cc1 | inconclusive: 110%
11 | COC(=O)c1ccc(S(=O)(=O)N(Cc2ccccc2)Cc2ccccc2)n1C | inconclusive: 137%
12 | Cc1cc2cc(CCNC(=O)c3ccc(C)c([N+](=O)[O-])c3)c(=O)[nH]c2cc1C | active: 7.69%
13 | CCn1c(C)cc(/C=C2/SC(=O)N(C(C)C(=O)OC)C2=O)c1C (stereo not drawn) | inconclusive: 82.8%
14 | COc1cc(S(=O)(=O)N(Cc2cccnc2)Cc2cccc(OC)c2OC)ccc1-n1cnnn1 | inconclusive: 103%
15 | CCc1sc(-c2ccccc2)nc1C(=O)OC | inconclusive: 109%
16 | CC(C)CN1CCNC(=O)C1CC(=O)NCc1cnn(-c2cccc(F)c2)c1 (stereo not drawn) | inactive: 96.5%
17 | CCCn1c(=O)c2[nH]cnc2n(-c2ccc(Cl)cc2)c1=O | inconclusive: 34.6%
18 | O=S(=O)(Nc1ncccn1)c1ccc(NC(=S)Nc2cccc(Cl)c2)cc1 | inconclusive: 74.5%
19 | COc1ccc(O[C@H]2C=C[C@@H](c3ccccc3)O[C@@H]2COC(=O)CC/C(C)=N/O[C@@H](C)CN2CCCCc3nc(C)c(C)cc32)cc1 | inactive: 102%
20 | CC(/C=N/n1c(-c2ccncc2)n[nH]c1=S)=C\c1ccco1 | inconclusive: 106%

Row | SMILES | binding response (% of control)
21 | CC(=O)N1CCN(c2ccc([N+](=O)[O-])c(-n3nc(C)cc3C)c2)CC1 | inactive: 84%
22 | CCCCC(=O)Nc1cc(-c2nc3ncccc3o2)ccc1C | inconclusive: 105%
23 | COc1ccc(CNCC(O)(c2ccc(F)cc2)c2ccc(F)cc2)cc1 | inactive: 102%
24 | CCOCCCNCc1cc(Cl)ccc1OCC | inconclusive: 107%
25 | CN(C)/C=C/C(=O)c1c(F)cccc1F | inconclusive: 99.3%
26 | Cc1ccc(CNc2ncc(-c3ccccc3)n2C)o1 | inactive: 101%
27 | Cc1ccc(C2=NOC(=O)/C2=C\c2ccc(C)o2)cc1 | inconclusive: 0.69%
28 | O=c1c(Cc2ccccc2)c(O)ccn1C1CCCCCCC1 | inconclusive: 104%
29 | COc1ccc(CNC(=O)c2ccc(NC(=O)C3CCCO3)cc2)cc1 (stereo not drawn) | inactive: 103%
30 | COc1ccc2cc(CCNC(=O)C3CCCC3)c(=O)[nH]c2c1 | inactive: 109%
31 | CC(c1ccccc1)N1CCN(C(=O)CCl)CC1 (stereo not drawn) | inconclusive: 99.8%
32 | CC(C)[C@H]1C=C(C(=O)O)O[C@@H](OCc2ccc(CO)cc2)C1 | inconclusive: 122%
33 | COC(=O)c1ccccc1N=Nc1c(N)n[nH]c1N | inconclusive: -146%
34 | COc1ccc(C(CC(=O)N2CCCC(C)C2)c2c(OC)cc(OC)c3ccc(=O)oc23)cc1 (stereo not drawn) | inconclusive: 100%
35 | Cc1noc(/C=C/c2ccc(-c3ccccc3Cl)o2)c1[N+](=O)[O-] | inactive: 115%
36 | COC(C[C@H]1O[C@H]1[C@H](O)[C@H](C)OCc1ccccc1)OC | inconclusive: 105%
37 | CC1(C)[C@@H](O)CC[C@]2(C)C3C(O)C=C4[C@H]5C[C@@](C)(CO)CC[C@]5(C)CC[C@]4(C)[C@]3(C)CC[C@@H]12 (stereo partly drawn) | inconclusive: 81.4%
38 | CC(C)(C)OC(=O)N[C@@H](Cc1ccccc1)c1nnc(S(=O)(=O)Cc2ccccc2)o1 | inactive: 101%
39 | COCCN(C(=S)Nc1cccc(C)c1)C(C)c1cccnc1 (stereo not drawn) | inactive: 99.7%
40 | CC(C)N1CCN(Cc2coc3ccccc3c2=O)CC1CCO (stereo not drawn) | inactive: 105%

Row | SMILES | binding response (% of control)
41 | Cc1nn(-c2nc(-c3ccco3)cc(C(F)(F)F)n2)c(C)c1Br | inactive: 95%
42 | CC1CCN(c2c(NCC3CCC(C(=O)NCCCc4ccccc4)CC3)c(=O)c2=O)CC1 (stereo not drawn) | inconclusive: 108%
43 | CN(C)c1ccc(/C=C/c2ccc3ccccc3n2)cc1 | inconclusive: 73.6%
44 | CCCN(Cc1cc2cc(OC)ccc2[nH]c1=O)C(=O)c1ccco1 | inconclusive: 429%
45 | S=c1[nH]nc(-c2cccc(Cl)c2)n1/N=C/c1ccco1 | inconclusive: 110%
46 | O=C(O)CCNC(=O)/C(=C\C=C\c1ccccc1)NC(=O)c1ccccc1 | inconclusive: 123%
47 | Cc1ccc(C(C)C)c(OCCCNCc2cccnc2)c1 | inconclusive: 100%
48 | Cc1ccc(NC(=O)CN(C)CC(=O)Nc2ccc(F)c(Cl)c2)cc1 | inconclusive: 106%
49 | COc1ccccc1OCCCOc1ccc(C)cc1Br | inactive: 102%
50 | CN1CCN(CC(O)(c2ccc(Cl)cc2)c2ccc(Cl)cc2)CC1 | inconclusive: 113%
51 | CC(C)Oc1ccc(CC(=O)NNC(=S)Nc2ccccc2)cc1 | inconclusive: 128%
52 | CCOC(=O)c1ccc(NC(=O)Cn2c(-c3nonc3N)nc3ccccc32)cc1 | inactive: 105%
53 | Cc1nc2c(C)cccc2c2c1CCS2 | inconclusive: 88.2%
54 | Cc1cc[n+](-c2ccccc2)c2ccccc12 | inconclusive: 112%
55 | O=C(COc1ccc(C2SCCS2)cc1)Nc1ccc(Cl)cc1 | inconclusive: 135%
56 | CCN(CC)CC(=O)n1c2c(c3ccccc31)CCCC2 | inactive: 78.1%
57 | Cc1c(N2C(=O)/C(=C3\C(=O)N(CC(=O)O)c4ccccc43)SC2=S)c(=O)n(-c2ccccc2)n1C | inconclusive: 45.2%
58 | CSc1nc(Cl)cc(=O)[nH]1 | inconclusive: 93.4%

Five entries from above, as tab-separated lines:
Row	SMILES	binding response (% of control)
47	Cc1ccc(C(C)C)c(OCCCNCc2cccnc2)c1	inconclusive: 100%
48	Cc1ccc(NC(=O)CN(C)CC(=O)Nc2ccc(F)c(Cl)c2)cc1	inconclusive: 106%
49	COc1ccccc1OCCCOc1ccc(C)cc1Br	inactive: 102%
50	CN1CCN(CC(O)(c2ccc(Cl)cc2)c2ccc(Cl)cc2)CC1	inconclusive: 113%
51	CC(C)Oc1ccc(CC(=O)NNC(=S)Nc2ccccc2)cc1	inconclusive: 128%

Reference: PubChem BioAssay AID1439 (NMMLSC, 2008)
